Values joined by “and” are separate entries in the source; they are usually repeats but may differ in a detail not shown here. Equal entries are not always repeated. Where two headings read alike, the source gives them in different places. Not every detail of the peptide structures is certain; ends, links or a residue may be inferred. Marks after values point to notes of the source that are not given here. No end group written: not given here.
How the values were obtained:
[1] = tested on: JAWSII cells; assay: Chemotaxis assay (48-well microchemotaxis chamber); assay type: cell-based, mouse; settings: for chemotactic index (C.I.) / chemotactic index as % of wild type AvBD-12: peptide 64 μg/ml
Description: (§1) Migration of JAWSII and CCR-2 transfected CHO-K1 cells in response to CAMPs (SEQ ID NOs: 1, 2, 3, and 4) was determined using a 48-well microchemotaxis chamber technique as previously described. Chemotaxis buffer (Minimum Essential Medium containing 0.1% BSA, 100 U/ml penicillin, and 100 μg/ml streptomycin) and bacterial peptide N-Formyl-methionyl-leucyl-phenylalanine (fMLF, Sigma-Aldrich) were included as negative and positive controls, respectively. The results were presented as chemotactic index (C.I.)=number of migrated cells induced by CAMPs (SEQ ID NOs: 1, 2, 3, and 4)/number of migrated cells induced by chemotactic buffer. The assay was repeated five times.
as §1, with “CCR2-CHO-K1” for “CCR-2 transfected CHO-K1”, “the analogues” for “CAMPs (SEQ ID NOs: 1, 2, 3, and 4)”, “For JAWSII cells, chemotaxis” for “Chemotaxis”, “(C.I.). C.I.=number” for “(C.I.)=number”, “the analogues/number” for “CAMPs (SEQ ID NOs: 1, 2, 3, and 4)/number”

[2] = tested on: P. aeruginosa ATCC 27853; assay type: cell-based; settings: 0-150 mM NaCl or 0-2 mM CaCl2; peptide 0.5×MIC and 1×MIC
[3] = tested on: S. aureus (ATCC 29213); assay type: cell-based; settings: S. aureus ATCC reference strain
Description: (§2) The minimum inhibitory concentrations (MICs) of CAMPs (SEQ ID NOs: 1, 2, 3, and 4) were determined according to the guidelines of the Clinical and Laboratory Standards Institute (CLSI). The Muller Hinton (MH) II broth used in MIC assay was supplemented with 20-25 mg/L of calcium and 10-12.5 mg/L of magnesium. In brief, peptides were two-fold serially diluted (2 to 256 μg/ml) in a 96-well microtiter plate (Nunc™, Thermo Fisher Scientific) and an equal volume (μl) of bacterial suspension was added to each well of the plate. The final bacterial concentration in the wells was 5×10^5 CFU/ml. […] All assays were conducted in triplicate.

[4] = tested on: P. aeruginosa; assay type: cell-based; settings: for MICAverage G−: mean over the Gram-negative (P. aeruginosa) strains of Table 2
Description: as §2

[5] = tested on: Gram-positive bacteria (S. aureus and MRSP strains); assay: MIC assay, Example One, pooled over Gram-positive strains; assay type: cell-based, S. pseudintermedius; settings: mean over the Gram-positive strains of Table 2
Description: as §2
The Hemolytic Assay includes the following procedures. Briefly, mouse red blood cells (RBCs, Innovative research, Novi, Mich.) were washed three times with phosphate-buffered saline (PBS, pH 7.4), centrifuged at 1000×g for 10 minutes, and re-suspended in PBS to 10% (v/v). The RBCs were treated with CAMPs (SEQ ID NOs: 1, 2, 3, and 4) at various concentrations ranging from 4 to 512 μg/ml (2-fold serial dilutions) at 37° C. for 1 hours. PBS and 0.2% Triton X-100 were used as negative and positive controls, respectively. The supernatant was transferred to a 96-well flat-bottomed polystyrene plate (Thermo Fisher Scientific), and the amount of hemoglobin released into the supernatant was determined by measuring the absorbance with a spectrophotometer at 540 nm. Hemolytic activity was expressed as the percentage of hemolysis and calculated using the following equation: hemolysis (%)=(As−A0)/(A100−A0)×100, where As is the absorbance of the sample, A100 is the absorbance of completely lysed RBCs in 0.2% Triton X-100, and A0 is the absorbance in the complete absence of hemolysis (PBS treatment). The assay was performed in triplicate. Therapeutic index (T.I.) was calculated according to a previously published formula: T.I.=MHC/MICGM. MHC was the minimum hemolytic concentration that caused 5% hemolysis of mouse RBCs. The MICGM was the minimum inhibitory concentration of the peptide concentrations against bacterial growth after the geometric mean was calculated. MICG− was the MICGM for Gram-negative bacteria; MICG+ was the MICGM for Gram-positive bacteria.

[6] = tested on: S. aureus ATCC 29213; assay type: cell-based; settings: 0-150 mM NaCl or 0-2 mM CaCl2; peptide 0.5×MIC and 1×MIC
[7] = tested on: P. aeruginosa (ATCC 27853); assay type: cell-based; settings: low salt condition (5 mM NaCl)
Description: (§3) The minimum inhibitory concentrations (MIC) of AvBDs (SEQ ID NOs: 5, 6, 7, 8, 9, 10, 11, 12, and 13) were determined under low salt and standard conditions according to the guidelines of the Clinical and Laboratory Standards Institute (CLSI). […] An equal volume […] of bacterial suspension was added to each well of the plate. The final bacterial concentration in the wells was 5×10^5 CFU/ml. […] To complement MIC-1s assays, the minimum bactericidal concentrations (MBC) were evaluated by sub-culturing the contents of the first two clear wells obtained in the MIC-1s assay onto LB agar plates. All assays were conducted in triplicate. The lowest peptide concentration inhibiting about, at least, or more than 99% of bacterial growth was defined as MBC-1s. The analogues were regarded as bactericidal when the MBC was determined to be no more than four times the MIC.

[8] = tested on: S. aureus (ATCC 29213); assay type: cell-based; settings: standard conditions, CLSI guidelines
Description: as §3

[9] = tested on: E. coli, S. Typhimurium, P. aeruginosa and S. aureus; assay: Antimicrobial activity assay (colony counting), Example Two, statements over all four bacteria; assay type: cell-based
Description: Escherichia coli (ATCC 25922), Pseudomonas aeruginosa (ATCC 27853), Salmonella enteric serovar Typhimurium (ATCC 14028) and Staphylococcus aureus (ATCC 29213) were used to assess the antimicrobial activity of AvBD analogues (SEQ ID NOs: 5, 6, 7, 8, 9, 10, 11, 12, and 13). All bacterial strains were grown on Luria-Bertani (LB) agar plates or Trypticase Soy Agar with 5% Sheep Blood (TSA, Thermo Fisher Scientific) plates at 37° C. Antimicrobial activity was determined by a colony counting assay. In brief, bacteria were suspended in 100-fold diluted Mueller Hinton broth with 5 mM NaCl (minimal growth medium) to obtain a final bacterial concentration of 2×10^5 CFU/ml. Twenty-five microliters of bacterial suspension and 25 μl of AvBD analogue (SEQ ID NOs: 5, 6, 7, 8, 9, 10, 11, 12, and 13) solution were mixed in the wells of a 96-well polypropylene microtiter plate (Nunc™, Thermo Fisher Scientific). The final peptide concentrations were 2, 4, 8, 16, 32, 64 and 128 μg/ml. The minimal growth medium without AvBD peptide (SEQ ID NO: 5, 6, 7, 8, 9, 10, 11, 12, and 13) was included as a negative control. The bacterial-peptide mixtures were incubated at 37° C. for 2 hours, 10-fold serially diluted and plated on LB agar plates. […] Antimicrobial activity was expressed as percent of killing using the following formula: (CPUcontrol−CFUtreated)/CFUcontrol×100%. […]

[10] = tested on: P. aeruginosa; assay type: cell-based; settings: protease up to 20 μg/ml (data not shown)

Substance	chemotactic activity [1]	impact of increasing NaCl and CaCl2 concentrations on bactericidal activity [2]	MIC lower than that of AvBD-6 [3] [fold]	MIC lower than that of AvBD-6 ([4]; P. aeruginosa ATCC reference strain) [fold]	MIC lower than that of AvBD-6 ([4]; P. aeruginosa clinical isolates) [fold]	MICAverage G− [4]	MICAverage G+ [5]	impact of increasing NaCl and CaCl2 concentrations on bactericidal activity [6]	chemotactic index (C.I.) [1]	chemotactic index as % of wild type AvBD-12 [1] [%]	MBS-Is [7] [µg/mL]	MIC [8]	killing activity compared with parent peptide ([9]; 2 to 128 μg/ml, 37° C., 2 hours)	impact of NaCl on the killing activity ([9]; NaCl 5 to 150 mM)	antimicrobial activity after treatment with matrilysin, elastase, and cathepsin B [10]
Ac-RKFLRRRGEVAHFSQKSLGLYCWWW-NH2 [CAMP-t1]	did not appear to produce chemotactic activity	little to no impact	4	4	2	122 ± 19^a μg/ml and 122.18 ± 19.29 μg/ml	209 ± 81^a μg/ml and 209.45 ± 81.41 μg/ml	little to no impact	–	–	–	–	–	–	–
GPRSANHKRGLARVGNANPGKYLAKYSFRPVILSSKPLSPTPTKT [AvBD-12A3]	–	–	–	–	–	–	–	–	3.74	56.6	16	>256^ μg/ml	more effective than the parent peptide AvBD-12	less adverse impact	–
Ac-RRRWRKRRWWW-NH2 [CAMP-B, RRRWRKRRWWW]	did not show appear to show any increased chemotactic activity	–	–	–	–	52 ± 16^b μg/ml and 52.36 ± 16.14 μg/ml	47 ± 17^b μg/ml and 46.55 ± 16.71 μg/ml	–	–	–	–	–	–	–	did not affect the antimicrobial activity
Ac-LRRLKPLIRPWLRPLRRWWW-NH2 [CAMP-A]	–	strong tolerance	–	–	–	15 ± 2^c μg/ml and 15.27 ± 2.41 μg/ml	22 ± 8^c μg/ml and 21.82 ± 8.07 μg/ml	strong tolerance	5.13	77.5	–	–	–	–	did not affect the antimicrobial activity
Ac-PIHRRIPPRWPRLKRRW-NH2 [CAMP-t2, PIHRRIPPRWPRLKRRW]	did not show appear to show any increased chemotactic activity	–	–	–	–	122 ± 73^a μg/ml and 122.18 ± 72.71 μg/ml	47 ± 30^b μg/ml and 46.55 ± 29.89 μg/ml	–	–	–	–	–	–	–	–
